## Screening data, single-dose tests

Mtb glucose medium: 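Growth of Mycobacterium tuberculosis over 3 days (7H9 medium with glucose and tyloxapol); the read-out is not stated. Concentration: 50 µM. Higher reads as more growth inhibition (inferred: compounds with an IC50 in retests scored well above the rest). About 69,000 compounds were tested under these conditions; 1.1% (about 760) showed 50% or more at least once.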
Mtb cholesterol medium: 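Phenotypic screen: M. tuberculosis growth, cholesterol and DPPC medium, 4 days; the read-out is not stated. Concentration: 50 µM. The record gives no direction; compounds that gave an IC50 in retests scored well above the rest, so higher reads as more growth inhibition. Size under these conditions: about 69,000 compounds, about 370 of them at 50% or above in at least one test.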

Each number is a percent effect as filed.
How 0% and 100% were set is not recorded. Most values in the screen are low, and negative values occur.
Compounds were drawn at random from those tested, without regard to their results.
Two or more numbers in one place are separate tests of the same structure; such repeats can differ widely.

| # | SMILES | Mtb glucose medium | Mtb cholesterol medium |
|---|---|---|---|
| 1 | `COc1cc(Br)c(CNC(C)c2nnc3n2CCC3)cc1OC` (stereo not given) | 17.3 | -5.349 |
| 2 | `CN(Cc1ccc([S+](C)[O-])cc1)c1ccc(C(F)(F)F)cn1` (stereo not given) | -3.187 | 21.39 |
| 3 | `CN1CCCC(Cc2cncc(C(=O)NCC3CC3)c2)C1` (stereo not given) | 6.932 | 8.561 |
| 4 | `Cn1ncc2c(=O)[nH]c(N3CCCC3c3cccc(Cl)c3)nc21` (stereo not given) | 9.915 & 5.366 | 18.34 |
| 5 | `COCCN1CCCC(CCCc2ccccn2)(C(N)=O)C1` (stereo not given) | 22.24 | 8.933 |
| 6 | `NC(=O)c1ccc(C2CCCN2C(=O)CCc2nc3ccccc3s2)s1` (stereo not given) | -5.896 | 13.2 |
| 7 | `[H][C@@]12CNCC[C@]1(O)CCN(c1ccnc3ccccc13)C2` | -41.83 & -2.636 | -8.806 |
| 8 | `Cc1ccc(S(=O)(=O)c2ncccc2CN2CCCCC2)cc1` | 12.24 | 27.27 |
| 9 | `CCC(=O)N1CCOC(c2cc(Nc3nncs3)cc(C)n2)C1` (stereo not given) | -22.85 | -1.134 & 5.753 |
| 10 | `CSCC(C)(O)CNc1cccc(F)c1C#N` (stereo not given) | -9.115 | 5.769 |
| 11 | `O=C(NC1CCS(=O)(=O)C1)N1CCN(c2cnccn2)CC1` (stereo not given) | 2.104 | 1.288 |
| 12 | `O=C([C@@H]1Cc2[nH]cnc2CN1Cc1cc2ccccc2o1)N1CCCC1` | -35.93 & -0.7353 | -22.81 |
| 13 | `O=C(O)C(F)(F)F.O=C(O)C(F)(F)F.[H][C@]12C[C@H](CN(C)C(C)C)O[C@@]1([H])CN(Cc1ccco1)C2` | -24.96 | -12.45 |
| 14 | `c1cnc(N2CCN(CCn3ccnc3-c3c[nH]cn3)CC2)nc1` | -38.18 | -12.42 |
| 15 | `O=C(c1ccccc1C1CCNC1)N1CCC(N2CCC(O)CC2)CC1` (stereo not given) | 0.9121 | 9.807 |
| 16 | `Cc1ncncc1C(=O)N1CCCC(n2ccnc2C)C1` (stereo not given) | -6.321 | -9.429 |
| 17 | `COc1cc(OC)cc(-c2cccc3c2OC(CN)C3)c1` (stereo not given) | 51.62 & 30.69 | 27.09 |
| 18 | `CC(=O)N1CCC(C(=O)NCCN2CCCC(C)C2)CC1` (stereo not given) | -3.428 & 24.22 | -0.3765 |
| 19 | `Cc1noc2ncc(S(=O)(=O)Nc3cc(CC(C)(C)C)[nH]n3)cc12` | -34.68 | -27.16 |
| 20 | `Cc1ocnc1C(=O)N1CC[C@@H](O)[C@@H](O)[C@H](N2CCC(F)(F)CC2)C1` | -15.12 | 11.08 |
| 21 | `CC(=O)N1CCCN(C2CCCCc3ccccc32)CC1` (stereo not given) | 15.13 | 11.1 |
| 22 | `CC1CCN(c2ncc3c(n2)CN(c2ccccc2)C3=O)CC1` | -27.93 | -20.9 |
| 23 | `Cc1cc(C(=O)N2CCC(c3nnc(Cn4ccnc4)n3C)CC2)cs1` | -3.206 | 6.906 |
| 24 | `[H][C@]12CCCCN1CCC[C@H]2CNC(=O)CCn1ccc2cc(C)ccc21` | 25.36 | 16.83 |
| 25 | `Nc1nc(N)c2c(n1)OC1(CCN(C(=O)CC3CCNCC3)CC1)C2` | -5.52 | -9.341 & -13.79 |
| 26 | `O=C(CCc1ccco1)NS(=O)(=O)Cc1ccon1` | -4.553 | 1.119 |
| 27 | `[H][C@@]12CS(=O)(=O)C[C@]1([H])N(C(=O)c1ccc(COC)o1)CCN2CC1CC1` | 17.05 | 6.854 |
| 28 | `O=S(=O)(c1cc(F)ccc1N1CC(n2cccn2)C1)C(F)(F)F` | 37.95 | 23.6 |
| 29 | `CC(NC(=O)NCc1ccccn1)c1ccc2c(c1)CCC(=O)N2` (stereo not given) | -9.421 | -13.36 |
| 30 | `CNC(=O)CCN1CCCCCC1c1ccc(C)o1` (stereo not given) | -41.15 | -33.53 |
| 31 | `CN(CCO)Cc1nnc(C2CCN(C3CCCCC3)CC2)n1C` | -23.43 | -19.71 |
| 32 | `CCNC(=O)NC(=O)CNc1cccc(C(=O)c2ccccc2)c1` | 13.38 | 30.39 |
| 33 | `Cc1nc(C)n(CC2CCCN(Cc3nc(-c4ccco4)no3)C2)n1` (stereo not given) | -29.26 | -16.91 & -11.48 |
| 34 | `[H][C@@]12C[C@H](C(=O)N3CCCC3)[C@@]([H])(CN(C(=O)Nc3ccccc3)C1)O2` | -5.839 | -19.13 |
| 35 | `CN1CC(=O)N(c2ccsc2)CC12CCN(S(=O)(=O)c1ccccc1)C2.O=C(O)C(F)(F)F` (stereo not given) | -8.371 | -5.713 |
| 36 | `CN(C)C(=O)NC1COC2(CCN(Cc3ccccc3)CC2)C1.O=C(O)C(F)(F)F` (stereo not given) | -27.16 | -23.02 |
| 37 | `CCC(C)NC(=O)c1ccc(NC(=O)CCc2ccncc2)c(C)c1` (stereo not given) | 15.37 | -14.68 |
| 38 | `O=C(O)C(F)(F)F.O=C(O)C(F)(F)F.[H][C@@]12C[C@@H](OCc3cccnc3)CN1CCN(C(=O)c1ccco1)C2` | -41.4 | 12.45 & 3.364 |
| 39 | `CS(=O)(=O)c1cccc(C(=O)NCC2Cc3ccccc3O2)c1` (stereo not given) | -1.259 | -2.831 & 5.27 |
| 40 | `Cc1ccn2ncc(C(=O)N3CCCC(n4cccn4)C3)c2n1` (stereo not given) | 16.29 | -2.87 |
| 41 | `CC(C)[C@@H]1CN(Cc2ccccn2)C[C@H]1NS(=O)(=O)N(C)C` | 18.49 | -12.11 |
| 42 | `O=C(N1CCOCC1)N1CCN(c2ccncc2Cl)CC1` | -8.77 | -11.66 |
| 43 | `CN(Cc1noc2c1CCCC2)C(=O)Nc1cncc(F)c1` | 2.268 | 7.348 |
| 44 | `NC(=O)CN1CCCN(C(=O)CCOc2ccccc2Cl)CC1` | 14.66 | 7.98 |
| 45 | `CC(C)n1cc(C(=O)N2Cc3ccccc3OC3(CCOCC3)C2)cn1` | -41.72 | -30.93 |
| 46 | `CN(C)c1nccnc1C1CCN(C(=O)C2(C)CCCCN2C)CC1` (stereo not given) | 11.92 | -13.57 & -11.04 |
| 47 | `CC[C@@H](NC(C)=O)C(=O)NCc1cccnc1Oc1ccccc1OC` | -7.685 | -24.19 |
| 48 | `Cc1cc(Oc2ccccc2F)nc(C2CCCCN2)n1.Cl.Cl` (stereo not given) | 11 | 6.273 |
| 49 | `COCC(NC(=O)c1cc(C)n(C)n1)c1cccc(C(F)(F)F)c1` (stereo not given) | -6.162 | -28.44 |
| 50 | `[H][C@@]12CN(C(=O)N(C)C)C[C@]1([H])C(=O)N(C)C21CCN(C(=O)NC(C)C)CC1` | -18.5 | 11.93 |
| 51 | `Cn1c(N2CCOCC2)nc2cc(C(=O)N3CCC(O)(CO)C3)ccc21` (stereo not given) | -27.82 | 2.226 |
| 52 | `CN(C)c1ncccc1CNS(=O)(=O)c1ccccc1F` | -9.365 | -13.36 |
| 53 | `CC(CNC(=O)NCc1ccco1)N1CCc2sccc2C1` (stereo not given) | 8.857 | -0.9266 |
| 54 | `O=C(c1cnc(-c2ccccn2)s1)N1CCCC1Cn1cccn1` (stereo not given) | 39.02 | 6.9 |
| 55 | `Cc1cc(C)n(CCN(C)Cc2c[nH]nc2-c2ccc3c(c2)OCO3)n1` | 21.14 & 11.84 | 13.29 |
| 56 | `O=C(c1cnc(NCc2cccnc2)c(Cl)c1)N1CCCCC1` | 7.08 | -2.378 |
| 57 | `CN(C)C(=O)C1(Oc2ccc(Cl)cc2)CCNCC1` | -7.107 | -0.1999 |
| 58 | `COc1cc(CN2CCC(COCc3ccccc3)CC2)cc(OC)c1` | 23.82 | 10.02 |
| 59 | `COCCNC(=O)CN1CCN(c2nc(C)cs2)CC1` | 3.272 | -2.207 |
| 60 | `CN(Cc1cn2c(n1)CN(C(=O)CC1CC1)CC2)Cc1ccco1.O=C(O)C(F)(F)F` | 24.61 | -12.18 |
| 61 | `[H][C@@]12CCN(CC3CCOCC3)[C@]1([H])CC[C@@H](c1nnc(C)o1)O2` | -11.89 | -15.94 |
| 62 | `O=C(c1ccc(NCc2cccc(F)c2)cc1)N1CCCC1` | 34.87 | 50.58 |
| 63 | `Cc1cc(S(=O)(=O)N2CCCc3cc(Cl)ccc32)sc1C(=O)O` | -37.57 | -12.96 & -6.793 |
| 64 | `O=C(CCc1ncc(-c2ccc(F)cc2)o1)NCCN1CCOCC1` | -16.71 | -7.328 |
| 65 | `Cc1cc(CNC2(CO)CCOCC2)ccc1Br` | -9.582 & 1.445 | 8.861 |
| 66 | `N#Cc1csc(CNCCOc2ccccc2)c1` | 11.65 | 11.51 & 44.47 |
| 67 | `CNCC(=O)N1CCCC1c1n[nH]cc1-c1ccccc1F.Cl` (stereo not given) | 6.622 | 9.631 |
| 68 | `COc1cccc(CSCC2=Nc3ccccc3S(=O)(=O)N2)c1` | 7.752 | 19.06 |
| 69 | `CCOCCN1CCN(CC(O)c2ccc(OC)cc2)CC1` (stereo not given) | -38.67 | -26.99 |
| 70 | `Cc1cc(N2CCN3CCCCC3C2)n2nc(C)c(C)c2n1` (stereo not given) | -6.892 & 15.63 | 0.1224 |
| 71 | `CC(C)Cc1ccc(C(=O)Cn2cnnc2[S+](C)[O-])cc1` (stereo not given) | -8.764 & 22.98 | 7.28 |
| 72 | `CSCc1noc(C2CCC(=O)N(CCCN3CCCC3=O)C2)n1` (stereo not given) | -7.297 | -5.59 & 0.9633 |
| 73 | `CCCOCC(=O)NC1CCc2nc(C)cn2C1` (stereo not given) | 40.25 & -4.727 | -8.865 |
| 74 | `CC(C)(CO)CCCNC(=O)N1CCc2c(F)ccc(F)c2C1` | 12.94 | 20.65 |
| 75 | `Cc1ccc(CN2CCc3c(nc4cc(C5CC5)nn4c3O)C2)s1` | 3.025 | -16.68 |

For reference, 5 entries once more:

SMILES,Mtb glucose medium,Mtb cholesterol medium
CN(C)c1nccnc1C1CCN(C(=O)C2(C)CCCCN2C)CC1 (stereo not given),11.92,-13.57 & -11.04
CC(=O)N1CCCN(C2CCCCc3ccccc32)CC1 (stereo not given),15.13,11.1
CC(NC(=O)NCc1ccccn1)c1ccc2c(c1)CCC(=O)N2 (stereo not given),-9.421,-13.36
Cc1ocnc1C(=O)N1CC[C@@H](O)[C@@H](O)[C@H](N2CCC(F)(F)CC2)C1,-15.12,11.08
[H][C@]12CCCCN1CCC[C@H]2CNC(=O)CCn1ccc2cc(C)ccc21,25.36,16.83

The values are deposited in ChEMBL (CHEMBL3988442, “University of Dundee, Small-Polar-MMV Screening Library” (2021)).